Reference: patent US5049548A (Merck & Co., Inc., priority 1989, dated 1991)

Assay: general procedure: solution-phase peptide synthesis; DCC/HOBT (EDC/HOBT in one case)
Conditions: coupling step

| Substance | step yield | step yield (iodide) |
| --- | --- | --- |
| N^α -(Quinuclidin-3(S)-yl)Phe-His-Cal[CH(OH)CH2 ]Val-NH-n-butyl | 75% |  |
| N^α -(Quinuclidin-3-yl)Phe-His-ACHPA-Ile-NHCH2 (pyridin-4-yl) | 87% |  |
| N^α -[(pyridin-2-yl)methyl]Phe-His-ACHPA-Ile-NHCH2 (pyridin-4-yl) | 11.7% |  |
| [N^α -(N-Methylquinuclidin-3(S)-yl)Phe-His(DNP)-ACHPA-Ile-NH-CH2 -(pyridin-4-yl)]^+ I^- |  | 62.0% |
